This is one part of the list. Most entries show no effect beyond the scatter of the controls.

Chains of the proteins cited; added tags and fusions are not shown. Lines headed by an entry give the natural chain unless they say otherwise; changes in a name come on top.
UniProt Q9BWJ5: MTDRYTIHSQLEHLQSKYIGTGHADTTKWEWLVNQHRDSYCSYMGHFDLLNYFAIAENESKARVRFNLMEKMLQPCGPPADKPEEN
UniProt Q9BZ67: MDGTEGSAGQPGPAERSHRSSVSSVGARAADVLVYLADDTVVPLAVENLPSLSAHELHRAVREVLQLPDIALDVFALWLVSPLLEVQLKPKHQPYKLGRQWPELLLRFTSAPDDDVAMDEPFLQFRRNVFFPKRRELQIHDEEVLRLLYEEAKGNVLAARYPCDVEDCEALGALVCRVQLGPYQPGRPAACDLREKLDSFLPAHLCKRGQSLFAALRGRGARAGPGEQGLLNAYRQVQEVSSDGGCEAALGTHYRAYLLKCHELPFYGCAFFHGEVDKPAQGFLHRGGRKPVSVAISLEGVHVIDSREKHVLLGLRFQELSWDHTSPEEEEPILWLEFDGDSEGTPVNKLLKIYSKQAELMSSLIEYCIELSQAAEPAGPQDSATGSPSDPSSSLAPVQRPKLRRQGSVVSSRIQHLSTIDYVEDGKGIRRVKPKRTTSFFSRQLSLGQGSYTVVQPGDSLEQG
UniProt Q9H0W8: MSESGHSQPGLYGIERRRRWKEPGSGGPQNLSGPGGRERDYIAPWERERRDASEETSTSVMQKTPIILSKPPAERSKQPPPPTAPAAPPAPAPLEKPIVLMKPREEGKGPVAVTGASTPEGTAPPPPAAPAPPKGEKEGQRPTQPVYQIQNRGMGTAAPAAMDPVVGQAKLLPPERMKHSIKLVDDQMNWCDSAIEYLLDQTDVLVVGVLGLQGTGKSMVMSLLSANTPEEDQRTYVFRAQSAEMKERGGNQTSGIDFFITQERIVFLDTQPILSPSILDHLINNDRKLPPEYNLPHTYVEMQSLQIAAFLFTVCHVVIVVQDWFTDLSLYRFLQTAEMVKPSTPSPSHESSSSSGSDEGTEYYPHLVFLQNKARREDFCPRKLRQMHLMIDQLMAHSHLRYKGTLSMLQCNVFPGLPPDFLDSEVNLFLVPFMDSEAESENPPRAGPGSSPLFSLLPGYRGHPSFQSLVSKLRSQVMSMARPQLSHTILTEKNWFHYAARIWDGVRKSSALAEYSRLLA
UniProt Q9BWT3: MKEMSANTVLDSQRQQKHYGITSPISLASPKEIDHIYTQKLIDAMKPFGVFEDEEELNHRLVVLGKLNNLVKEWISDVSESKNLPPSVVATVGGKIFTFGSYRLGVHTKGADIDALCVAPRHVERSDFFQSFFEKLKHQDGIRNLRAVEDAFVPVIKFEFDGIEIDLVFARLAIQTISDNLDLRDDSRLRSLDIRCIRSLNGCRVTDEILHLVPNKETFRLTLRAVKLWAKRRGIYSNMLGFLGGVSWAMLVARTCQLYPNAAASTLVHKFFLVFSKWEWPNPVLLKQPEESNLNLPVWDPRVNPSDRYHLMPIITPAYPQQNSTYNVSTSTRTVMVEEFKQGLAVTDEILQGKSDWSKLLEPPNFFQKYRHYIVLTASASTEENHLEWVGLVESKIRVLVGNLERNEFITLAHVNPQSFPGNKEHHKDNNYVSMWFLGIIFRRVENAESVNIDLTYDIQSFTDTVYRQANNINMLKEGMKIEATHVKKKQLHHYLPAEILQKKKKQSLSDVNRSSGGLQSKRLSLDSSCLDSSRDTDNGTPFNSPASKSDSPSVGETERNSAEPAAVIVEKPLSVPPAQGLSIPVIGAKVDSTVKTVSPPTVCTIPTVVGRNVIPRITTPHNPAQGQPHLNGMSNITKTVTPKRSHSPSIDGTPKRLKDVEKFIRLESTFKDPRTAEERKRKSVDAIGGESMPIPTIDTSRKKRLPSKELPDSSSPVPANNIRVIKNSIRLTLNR
UniProt Q9BUR4: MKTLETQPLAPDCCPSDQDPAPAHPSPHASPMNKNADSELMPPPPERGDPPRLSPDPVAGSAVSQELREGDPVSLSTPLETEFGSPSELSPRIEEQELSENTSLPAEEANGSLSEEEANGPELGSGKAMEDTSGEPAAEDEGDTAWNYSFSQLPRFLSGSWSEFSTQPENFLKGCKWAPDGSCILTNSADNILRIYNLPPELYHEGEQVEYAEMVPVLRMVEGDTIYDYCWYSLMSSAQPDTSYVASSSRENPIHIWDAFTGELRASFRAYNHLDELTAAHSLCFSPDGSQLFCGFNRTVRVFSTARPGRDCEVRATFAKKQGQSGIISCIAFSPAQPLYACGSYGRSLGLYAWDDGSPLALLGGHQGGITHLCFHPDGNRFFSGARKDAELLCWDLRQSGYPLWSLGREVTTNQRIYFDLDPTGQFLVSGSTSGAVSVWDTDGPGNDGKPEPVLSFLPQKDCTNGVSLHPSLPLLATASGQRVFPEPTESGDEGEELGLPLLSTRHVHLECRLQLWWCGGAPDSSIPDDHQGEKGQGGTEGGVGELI
UniProt Q9BUP3: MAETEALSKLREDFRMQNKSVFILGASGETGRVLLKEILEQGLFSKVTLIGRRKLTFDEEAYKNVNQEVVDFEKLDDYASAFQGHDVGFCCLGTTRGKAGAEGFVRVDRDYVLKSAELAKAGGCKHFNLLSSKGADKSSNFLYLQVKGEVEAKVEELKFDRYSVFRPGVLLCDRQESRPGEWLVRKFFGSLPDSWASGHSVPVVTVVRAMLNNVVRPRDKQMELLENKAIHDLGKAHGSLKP
UniProt Q9BZZ5: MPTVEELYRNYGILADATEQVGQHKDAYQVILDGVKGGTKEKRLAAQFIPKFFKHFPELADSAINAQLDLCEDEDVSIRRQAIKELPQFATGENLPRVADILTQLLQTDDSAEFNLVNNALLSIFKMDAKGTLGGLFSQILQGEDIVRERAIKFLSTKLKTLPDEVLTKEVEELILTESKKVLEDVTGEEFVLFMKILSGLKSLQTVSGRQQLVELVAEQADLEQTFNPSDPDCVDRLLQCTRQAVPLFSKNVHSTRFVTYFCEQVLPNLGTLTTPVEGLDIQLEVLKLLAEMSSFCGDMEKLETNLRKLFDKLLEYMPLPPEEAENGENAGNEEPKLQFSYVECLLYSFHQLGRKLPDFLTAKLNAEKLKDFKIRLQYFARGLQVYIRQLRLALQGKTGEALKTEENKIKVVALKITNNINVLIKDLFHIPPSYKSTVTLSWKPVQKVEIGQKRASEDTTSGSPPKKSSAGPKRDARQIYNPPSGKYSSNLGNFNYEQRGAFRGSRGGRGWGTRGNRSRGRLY
UniProt Q9BY43: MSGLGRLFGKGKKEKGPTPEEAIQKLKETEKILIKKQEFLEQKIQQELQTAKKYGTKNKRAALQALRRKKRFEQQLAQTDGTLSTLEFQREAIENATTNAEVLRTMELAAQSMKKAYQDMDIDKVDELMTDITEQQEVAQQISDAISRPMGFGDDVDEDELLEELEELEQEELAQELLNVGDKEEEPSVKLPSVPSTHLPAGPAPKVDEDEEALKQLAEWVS
UniProt Q9C0C4, whole entry: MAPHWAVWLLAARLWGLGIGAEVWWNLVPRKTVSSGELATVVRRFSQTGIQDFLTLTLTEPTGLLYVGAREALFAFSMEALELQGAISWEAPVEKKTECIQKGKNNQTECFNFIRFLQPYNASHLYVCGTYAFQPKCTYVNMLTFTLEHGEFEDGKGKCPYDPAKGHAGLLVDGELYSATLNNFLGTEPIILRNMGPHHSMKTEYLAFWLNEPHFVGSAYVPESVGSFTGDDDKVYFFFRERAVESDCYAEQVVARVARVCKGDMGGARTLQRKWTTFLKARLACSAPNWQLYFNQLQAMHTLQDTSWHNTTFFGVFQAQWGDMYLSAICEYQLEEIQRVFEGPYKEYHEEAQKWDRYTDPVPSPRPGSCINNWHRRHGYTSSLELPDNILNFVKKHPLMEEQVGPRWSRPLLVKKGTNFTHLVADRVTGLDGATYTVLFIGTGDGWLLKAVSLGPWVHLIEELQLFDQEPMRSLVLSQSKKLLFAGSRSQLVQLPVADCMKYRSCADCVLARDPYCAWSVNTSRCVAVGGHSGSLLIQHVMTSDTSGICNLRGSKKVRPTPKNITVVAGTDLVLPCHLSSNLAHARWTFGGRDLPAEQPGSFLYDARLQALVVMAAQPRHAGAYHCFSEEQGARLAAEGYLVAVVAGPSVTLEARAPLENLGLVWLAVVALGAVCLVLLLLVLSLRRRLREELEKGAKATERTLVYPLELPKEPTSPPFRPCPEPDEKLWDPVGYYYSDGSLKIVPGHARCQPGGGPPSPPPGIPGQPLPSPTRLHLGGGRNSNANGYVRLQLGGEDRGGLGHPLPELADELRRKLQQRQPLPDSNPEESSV
UniProt Q9BWU0: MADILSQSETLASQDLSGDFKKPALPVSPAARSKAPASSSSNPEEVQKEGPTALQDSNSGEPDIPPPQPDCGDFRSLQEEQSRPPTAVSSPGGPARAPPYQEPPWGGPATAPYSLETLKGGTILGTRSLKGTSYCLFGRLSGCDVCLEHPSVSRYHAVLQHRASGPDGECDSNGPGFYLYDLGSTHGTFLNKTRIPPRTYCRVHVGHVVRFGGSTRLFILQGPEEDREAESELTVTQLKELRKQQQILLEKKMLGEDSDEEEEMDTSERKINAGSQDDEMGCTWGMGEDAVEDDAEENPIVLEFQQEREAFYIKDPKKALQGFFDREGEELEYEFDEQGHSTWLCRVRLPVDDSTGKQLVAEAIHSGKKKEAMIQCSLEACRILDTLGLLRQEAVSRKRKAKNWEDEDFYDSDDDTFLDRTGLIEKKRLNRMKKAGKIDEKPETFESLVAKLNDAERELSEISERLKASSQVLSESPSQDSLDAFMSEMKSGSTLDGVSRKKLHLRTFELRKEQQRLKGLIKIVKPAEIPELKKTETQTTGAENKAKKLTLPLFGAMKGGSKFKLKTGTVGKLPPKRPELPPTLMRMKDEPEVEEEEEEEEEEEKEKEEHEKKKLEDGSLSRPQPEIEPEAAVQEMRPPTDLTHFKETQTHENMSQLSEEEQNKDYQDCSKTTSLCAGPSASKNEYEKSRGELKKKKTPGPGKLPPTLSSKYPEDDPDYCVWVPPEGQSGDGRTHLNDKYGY
UniProt Q9BWK5: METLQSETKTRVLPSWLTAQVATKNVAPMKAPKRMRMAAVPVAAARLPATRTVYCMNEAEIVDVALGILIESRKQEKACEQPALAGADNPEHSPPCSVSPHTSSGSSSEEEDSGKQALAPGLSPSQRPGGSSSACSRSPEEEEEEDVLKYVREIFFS
UniProt Q9BXX2: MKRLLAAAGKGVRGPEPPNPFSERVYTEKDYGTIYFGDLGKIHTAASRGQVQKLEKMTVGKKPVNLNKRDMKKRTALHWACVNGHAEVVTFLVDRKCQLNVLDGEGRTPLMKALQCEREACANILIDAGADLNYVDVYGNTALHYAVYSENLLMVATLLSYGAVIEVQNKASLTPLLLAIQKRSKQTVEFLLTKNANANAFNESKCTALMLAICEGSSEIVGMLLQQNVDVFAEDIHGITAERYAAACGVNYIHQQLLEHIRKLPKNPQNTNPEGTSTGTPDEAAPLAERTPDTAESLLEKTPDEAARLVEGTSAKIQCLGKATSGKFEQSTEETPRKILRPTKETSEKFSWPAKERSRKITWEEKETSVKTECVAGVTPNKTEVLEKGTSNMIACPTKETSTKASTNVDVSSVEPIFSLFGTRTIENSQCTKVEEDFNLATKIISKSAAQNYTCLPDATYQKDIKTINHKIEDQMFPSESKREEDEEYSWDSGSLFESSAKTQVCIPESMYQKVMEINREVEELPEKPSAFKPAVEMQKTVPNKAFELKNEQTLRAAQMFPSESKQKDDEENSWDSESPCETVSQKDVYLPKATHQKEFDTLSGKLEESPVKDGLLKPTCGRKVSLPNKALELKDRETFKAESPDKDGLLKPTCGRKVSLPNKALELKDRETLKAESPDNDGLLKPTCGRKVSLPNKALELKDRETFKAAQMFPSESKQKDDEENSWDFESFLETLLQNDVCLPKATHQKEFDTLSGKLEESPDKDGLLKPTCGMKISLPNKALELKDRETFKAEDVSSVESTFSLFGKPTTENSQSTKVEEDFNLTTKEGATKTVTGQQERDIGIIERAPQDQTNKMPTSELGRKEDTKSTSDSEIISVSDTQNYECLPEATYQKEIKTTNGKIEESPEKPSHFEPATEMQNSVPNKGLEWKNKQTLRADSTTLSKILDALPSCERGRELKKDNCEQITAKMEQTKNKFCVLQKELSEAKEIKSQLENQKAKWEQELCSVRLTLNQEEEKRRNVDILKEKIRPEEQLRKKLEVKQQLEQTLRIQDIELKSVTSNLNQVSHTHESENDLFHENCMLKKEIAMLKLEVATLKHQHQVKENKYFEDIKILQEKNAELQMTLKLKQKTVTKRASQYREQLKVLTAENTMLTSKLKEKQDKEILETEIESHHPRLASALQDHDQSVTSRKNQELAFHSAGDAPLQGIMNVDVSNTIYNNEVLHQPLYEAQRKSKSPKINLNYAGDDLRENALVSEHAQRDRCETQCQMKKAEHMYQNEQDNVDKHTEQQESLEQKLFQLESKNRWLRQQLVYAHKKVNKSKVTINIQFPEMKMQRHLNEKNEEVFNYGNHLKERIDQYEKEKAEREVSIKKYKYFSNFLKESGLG
UniProt Q9BV40: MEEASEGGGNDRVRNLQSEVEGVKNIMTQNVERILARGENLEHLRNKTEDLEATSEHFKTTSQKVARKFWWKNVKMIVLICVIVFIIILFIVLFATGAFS

Compound in this assay: Cc1nc(Nc2ncc(C(=O)Nc3c(C)cccc3Cl)s2)cc(N2CCN(CCO)CC2)n1 [dasatinib]
The assay can be described thus: log2 fold change of tryptic peptide abundance, ligand vs vehicle (limited proteolysis) (log2 ratio); higher = more trypsin-susceptible (destabilized). Conditions: ligand concentration: 5 uM; sample: K562 cleared lysate.
“UniProt Q9H0K1 (peptide sequence: HTLSEVTNQLVVMPGAGK, peptide start residue: 483)”: the log2 fold change was 0.257.

Take “SF3B5 (peptide sequence: YIGTGHADTTK, peptide start residue: 18) (UniProt Q9BWJ5)”: the log2 fold change was determined as 0.242.

For the target “PAIP1 (peptide sequence: APGFLQPPPLR, peptide start residue: 50) (UniProt Q9H074)”, the log2 fold change came to 0.17.

On to “FTO (peptide sequence: ILIGNPGCTYK, peptide start residue: 97) (UniProt Q9C0B1)”, for which the log2 fold change is -0.373.

With “NACA4P (peptide sequence: SKNILFVITKPDVYK, peptide start residue: 1962) (UniProt Q9BZK3)”, the log2 fold change is -0.105.

Take “POLR1E (peptide sequence: EKMDSCIEAFGTTK, peptide start residue: 133) (UniProt Q9GZS1)”: the log2 fold change was determined as 0.117.

Turning to “UniProt Q9BZR9 (peptide sequence: DWLDASQQPGHQDFYR, peptide start residue: 523)”, the log2 fold change is -0.0333.

On to “FRMD8 (peptide sequence: VQLGPYQPGRPAACDLR, peptide start residue: 178) (UniProt Q9BZ67)”, for which the log2 fold change is -0.133.

Regarding “SORBS1 (peptide sequence: SVLEGGDIPLQGLSGLKRPSSSASTK, peptide start residue: 684) (UniProt Q9BX66)”, the log2 fold change is -0.172.

As for “BRD8 (peptide sequence: NIENGLIR, peptide start residue: 760) (UniProt Q9H0E9)”, the log2 fold change is -0.327.

Turning to “UniProt Q9H0W8 (peptide sequence: SESGHSQPGLYGIERR, peptide start residue: 2)”, the log2 fold change was -0.394.

Regarding “PAPOLG (peptide sequence: MKEMSANTVLDSQR, peptide start residue: 1) (UniProt Q9BWT3)”, the log2 fold change is 0.206.

Turning to “SPRTN (peptide sequence: DKPNRGEAQLVIPFSGK, peptide start residue: 240) (UniProt Q9H040)”, the log2 fold change is -0.473.

“IFIH1 (peptide sequence: YLISCFR, peptide start residue: 13) (UniProt Q9BYX4)”: the log2 fold change is 0.111.

On to “UniProt Q9BUR4 (peptide sequence: NADSELMPPPPERGDPPR, peptide start residue: 35)”, for which the log2 fold change was -0.141.

Consider “HELZ2 (peptide sequence: LVLAGDHMQVTPR, peptide start residue: 690) (UniProt Q9BYK8)”, for which the log2 fold change was -0.208.

On to “UniProt Q9BYE2 (peptide sequence: NKPGVYTK, peptide start residue: 224)”, for which the log2 fold change was determined as 0.0133.

“UniProt Q9H0G5 (peptide sequence: EKVIETPENDFKHHR, peptide start residue: 270)”: the log2 fold change was -0.811.

With “HTATIP2 (peptide sequence: DKQMELLENK, peptide start residue: 219) (UniProt Q9BUP3)”, the log2 fold change was -0.115.

For “MRPS26 (peptide sequence: EREVLQLQEEVK, peptide start residue: 154) (UniProt Q9BYN8)”, the log2 fold change stood at 0.254.

Regarding “DDA1 (peptide sequence: KRDQEQVELEGESSAPPR, peptide start residue: 71) (UniProt Q9BW61)”, the log2 fold change was determined as 0.176.

Consider “API5 (peptide sequence: RLAAQFIPK, peptide start residue: 43) (UniProt Q9BZZ5)”, for which the log2 fold change was determined as 0.0933.

As to “TARS2 (peptide sequence: AEASGGLGGLTR, peptide start residue: 439) (UniProt Q9BW92)”, the log2 fold change is -0.155.

On to “CHMP4A (peptide sequence: QEFLEQK, peptide start residue: 37) (UniProt Q9BY43)”, for which the log2 fold change stood at 0.31.

For “SEMA4C (peptide sequence: NSNANGYVR, peptide start residue: 783) (UniProt Q9C0C4)”, the log2 fold change was -0.422.

Consider “FAM107B (peptide sequence: NHQDLHR, peptide start residue: 29) (UniProt Q9H098)”, for which the log2 fold change was -0.465.

In the case of “SLC4A1AP (peptide sequence: KTPGPGKLPPTLSSK, peptide start residue: 751) (UniProt Q9BWU0)”, the log2 fold change is 0.614.

As to “UniProt Q9BY27 (peptide sequence: HQEAQQACRPHNLPVVQAAQQR, peptide start residue: 100)”, the log2 fold change was -0.0661.

For the target “PUS7L (peptide sequence: KAVHHFVNKK, peptide start residue: 243) (UniProt Q9H0K6)”, the log2 fold change is 0.607.

Regarding “CYREN (peptide sequence: MAAVPVAAAR, peptide start residue: 37) (UniProt Q9BWK5)”, the log2 fold change is -0.0993.

“UniProt Q9C0G6 (peptide sequence: KLYKMAGVEDK, peptide start residue: 2488)”: the log2 fold change turned out to be 0.245.

Turning to “UniProt Q9BVR0 (peptide sequence: DKWQPLLSTVTGVHK, peptide start residue: 1604)”, the log2 fold change turned out to be 0.351.

In the case of “CDCA4 (peptide sequence: QSLLDMSLVK, peptide start residue: 35) (UniProt Q9BXL8)”, the log2 fold change stood at 0.364.

Consider “BRIP1 (peptide sequence: THEIEIK, peptide start residue: 1226) (UniProt Q9BX63)”, for which the log2 fold change is -0.391.

“ANKRD30B (peptide sequence: LLAAAGK, peptide start residue: 4) (UniProt Q9BXX2)”: the log2 fold change stood at 0.0476.

With “VAMP8 (peptide sequence: TEDLEATSEHFK, peptide start residue: 48) (UniProt Q9BV40)”, the log2 fold change is -0.133.

On to “UniProt Q9BXW7 (peptide sequence: GWAAPIRK, peptide start residue: 300)”, for which the log2 fold change was found to be 0.123.
